Key:
MCF7 = assay: VEPEP-5 mediated delivery of small hydrophobic molecules, inhibition of proliferation; assay type: cell-based; settings: Homo sapiens, free drug without carrier
Text: (§1) VEPEP-5 peptides (Short-6, Short-7 and Short 11) have been used for the delivery of different small hydrophobic molecules including doxorubicin and porphyrin on different cell lines including primary cell lines and challenging cell lines. VEPEP-5 peptides form stable particles with small aromatic molecules (table 2). Effect of VEPEP-5 mediated delivery of doxorubicin and porphyrin have been investigated on cancer cell viability. […] The impact of carrier peptides to improve cellular uptake of small molecule drugs was estimated by following inhibition of proliferation of cancer cells.

Hela = assay: as above; assay type: cell-based; settings: Homo sapiens, free drug without carrier
Text: as §1

COc1cccc2c1C(=O)c1c(O)c3c(c(O)c1C2=O)C[C@@](O)(C(=O)CO)C[C@@H]3O[C@H]1C[C@H](N)[C@H](O)[C@H](C)O1 [Doxo, doxorubicin]
IC50 (MCF7): 9 µM | IC50 (Hela): 10 µM

— patent US10118944B2, “Cell penetrating peptides for intracellular delivery of molecules” (AADIGEN, LLC, priority 2012, dated 2018)
